Data as given in article PMC11759358.
Results are given in words; binding and its absence hold for the method and conditions named. For part of these data: In cells and extracts the contact can be indirect. Some entries that bind do so weakly or less than the wild type. For part of these data: Tags and fused reporters may be left off the sequences shown.

Assays:
[1] = target: T1, VN::Exd (Extradenticle fused to the N-terminal part of Venus) (Drosophila) (UniProt P40427); test: split reporter; BiFC with Venus fragments, UAS-Abd-B::VC (or W>A) and UAS-VN::Exd co-expressed with pnr-Gal4/Gal80^ts in the dorsal pupal abdomen, shift 18°C to 29°C in third instar; signal in histoblasts
T1 sequence: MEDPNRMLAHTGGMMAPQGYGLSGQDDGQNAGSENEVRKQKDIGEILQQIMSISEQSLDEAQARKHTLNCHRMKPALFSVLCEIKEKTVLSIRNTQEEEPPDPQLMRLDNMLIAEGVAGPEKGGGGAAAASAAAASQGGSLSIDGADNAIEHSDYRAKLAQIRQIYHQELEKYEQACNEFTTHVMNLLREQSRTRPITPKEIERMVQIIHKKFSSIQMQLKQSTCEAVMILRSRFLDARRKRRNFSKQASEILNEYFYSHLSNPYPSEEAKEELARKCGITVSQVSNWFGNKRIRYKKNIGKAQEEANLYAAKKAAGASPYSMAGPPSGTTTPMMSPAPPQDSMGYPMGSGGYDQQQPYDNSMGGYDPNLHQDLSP

[2] = target: T1, VN::Exd (Extradenticle fused to the N-terminal part of Venus) (Drosophila); test: split reporter; same BiFC in the dorsal pupal abdomen, read in the polytene larval epidermal cells (LECs), which also express both fusion proteins
[3] = target: T2, Flag::Hth (Homothorax, Flag-tagged) (Drosophila) (UniProt O46339); test: co-IP; SF9 extracts with Flag::Hth, His::Exd and HA::Abd-B (wild type or W>A) mixed and incubated on anti-Flag resin; lysis solution 140 mM KCl, 5% glycerol, 2.5% MgCl2, 25 mM Hepes pH 7.8, 10 mM imidazole; Western blot by the tags
T2 sequence: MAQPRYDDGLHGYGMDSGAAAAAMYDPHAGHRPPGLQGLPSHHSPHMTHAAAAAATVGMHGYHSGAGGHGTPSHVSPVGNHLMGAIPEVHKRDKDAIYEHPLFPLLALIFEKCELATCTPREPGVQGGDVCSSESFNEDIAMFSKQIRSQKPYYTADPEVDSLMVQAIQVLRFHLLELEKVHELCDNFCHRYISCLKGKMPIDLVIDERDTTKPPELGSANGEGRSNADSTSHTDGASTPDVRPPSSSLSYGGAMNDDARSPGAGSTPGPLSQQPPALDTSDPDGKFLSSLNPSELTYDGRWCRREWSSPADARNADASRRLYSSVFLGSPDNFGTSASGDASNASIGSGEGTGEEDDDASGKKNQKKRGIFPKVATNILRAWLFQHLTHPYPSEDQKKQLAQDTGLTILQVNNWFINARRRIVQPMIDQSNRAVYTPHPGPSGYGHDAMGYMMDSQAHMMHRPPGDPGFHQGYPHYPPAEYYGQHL

[4] = target: T2, Flag::Hth (Homothorax, Flag-tagged) (Drosophila); test: co-IP; SF9 extracts with Flag::Hth and HA::Abd-B only, without Exd, on anti-Flag resin; Western blot by the tags
[5] = target: T3, Hth (in the EMSA) (Drosophila) (UniProt O46339); test: native gel or EMSA; EMSA in 20 μl with radiolabelled DllR^con (Dll^con) probe; Abd-B proteins in vitro translated, with Exd and Hth; the trimeric protein complex is seen on the DNA
T3 sequence: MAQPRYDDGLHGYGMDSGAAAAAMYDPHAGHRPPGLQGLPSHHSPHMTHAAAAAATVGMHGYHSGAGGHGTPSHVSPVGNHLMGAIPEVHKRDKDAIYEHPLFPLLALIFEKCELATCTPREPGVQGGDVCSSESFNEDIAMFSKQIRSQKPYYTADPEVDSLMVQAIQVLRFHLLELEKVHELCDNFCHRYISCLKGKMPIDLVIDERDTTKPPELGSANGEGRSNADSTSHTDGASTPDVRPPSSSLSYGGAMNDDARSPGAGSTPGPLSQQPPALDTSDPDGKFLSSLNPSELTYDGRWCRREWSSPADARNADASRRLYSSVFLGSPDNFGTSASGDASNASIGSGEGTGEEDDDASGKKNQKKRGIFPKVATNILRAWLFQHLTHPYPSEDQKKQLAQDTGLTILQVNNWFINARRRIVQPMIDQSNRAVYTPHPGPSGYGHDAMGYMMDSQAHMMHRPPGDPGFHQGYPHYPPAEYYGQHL

[6] = target: T4, Exd (in the EMSA) (Drosophila) (UniProt P40427); test: as above
T4 sequence: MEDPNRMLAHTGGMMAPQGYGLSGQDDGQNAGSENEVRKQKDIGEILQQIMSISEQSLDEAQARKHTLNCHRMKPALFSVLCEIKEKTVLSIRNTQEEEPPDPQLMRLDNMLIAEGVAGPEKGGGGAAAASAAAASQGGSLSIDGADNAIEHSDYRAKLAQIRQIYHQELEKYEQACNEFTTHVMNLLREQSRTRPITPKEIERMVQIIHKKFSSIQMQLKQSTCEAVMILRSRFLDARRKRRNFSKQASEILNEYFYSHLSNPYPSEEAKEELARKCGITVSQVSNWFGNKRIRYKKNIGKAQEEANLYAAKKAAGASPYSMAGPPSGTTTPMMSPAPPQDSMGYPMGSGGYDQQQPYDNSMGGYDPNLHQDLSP

[7] = target: T3, Hth (in the EMSA) (Drosophila); test: native gel or EMSA; EMSA in 20 μl with radiolabelled cycE probe; Abd-B proteins in vitro translated, with Exd and Hth; the trimeric protein complex is seen on the DNA
[8] = target: T4, Exd (in the EMSA) (Drosophila); test: as above

## Abd-B::VC (Abdominal-B fused to the C-terminal part of Venus) (from UniProt P09087 1-493)
[1]
  binding: binds
[2]
  binding: no binding (condition: in larval epidermal cells (LECs))

## HA::Abd-B (Abdominal-B, wild type, HA-tagged) (from UniProt P09087 1-493)
[3]
  binding: binds
[4]
  binding: binds

## Abd-B (in vitro translated, for EMSA) (from UniProt P09087 1-493)
[5]
  binding: binds
[6]
  binding: binds
[7]
  binding: binds
[8]
  binding: binds

B1: His::Exd (Extradenticle, His-tagged) (protein, UniProt P40427 1-376)
chain: MEDPNRMLAHTGGMMAPQGYGLSGQDDGQNAGSENEVRKQKDIGEILQQIMSISEQSLDEAQARKHTLNCHRMKPALFSVLCEIKEKTVLSIRNTQEEEPPDPQLMRLDNMLIAEGVAGPEKGGGGAAAASAAAASQGGSLSIDGADNAIEHSDYRAKLAQIRQIYHQELEKYEQACNEFTTHVMNLLREQSRTRPITPKEIERMVQIIHKKFSSIQMQLKQSTCEAVMILRSRFLDARRKRRNFSKQASEILNEYFYSHLSNPYPSEEAKEELARKCGITVSQVSNWFGNKRIRYKKNIGKAQEEANLYAAKKAAGASPYSMAGPPSGTTTPMMSPAPPQDSMGYPMGSGGYDQQQPYDNSMGGYDPNLHQDLSP
[3]
  binding: binds
